According to article PMC5003356:
Construct, isoform or probe ends are uncertain for at least one entry. Results from cells or extracts need not show a direct contact. For some of these results: Tags and fusion partners may be left off the protein sequences shown.

Assays:
Experiment in all cases: BRET
ANXA2-NLuc = ANXA2-NLuc (UniProt P07356); settings: PS, BRET: 1X binding buffer (0.1 M potassium acetate, 20 mM Tris pH 7.5, 1 mM EDTA, 0.01% NP-40), room temperature, 15 min, protein in a lysate after overexpression, protein details: C-terminal NLuc, label: 3' Alexa Fluor 594, synthetic backbone
FUS-NLuc = target: T1, FUS-NLuc (UniProt P56959); settings: PS, BRET: 1X binding buffer (0.1 M potassium acetate, 20 mM Tris pH 7.5, 1 mM EDTA, 0.01% NP-40), room temperature, 15 min, protein in a lysate after overexpression, protein details: C-terminal NLuc, label: 3' Alexa Fluor 594, synthetic backbone
T1 sequence (looked up, limits assumed): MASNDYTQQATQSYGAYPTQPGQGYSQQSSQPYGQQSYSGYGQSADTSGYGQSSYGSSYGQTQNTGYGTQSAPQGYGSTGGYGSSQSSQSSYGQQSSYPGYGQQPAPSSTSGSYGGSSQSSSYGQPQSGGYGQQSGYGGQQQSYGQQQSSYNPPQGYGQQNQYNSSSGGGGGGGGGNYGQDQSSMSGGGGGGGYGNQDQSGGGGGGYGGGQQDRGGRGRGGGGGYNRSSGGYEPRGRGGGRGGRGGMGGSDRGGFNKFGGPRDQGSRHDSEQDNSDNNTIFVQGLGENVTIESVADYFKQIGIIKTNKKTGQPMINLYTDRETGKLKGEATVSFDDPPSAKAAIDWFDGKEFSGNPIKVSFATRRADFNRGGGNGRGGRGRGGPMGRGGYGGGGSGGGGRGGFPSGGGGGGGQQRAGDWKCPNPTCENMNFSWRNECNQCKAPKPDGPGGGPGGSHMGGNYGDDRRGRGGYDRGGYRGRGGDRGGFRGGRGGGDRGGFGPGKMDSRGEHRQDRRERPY

HSP90 (mid)-NLuc = HSP90 (mid)-NLuc (UniProt P07900); settings: PS, BRET: 1X binding buffer (0.1 M potassium acetate, 20 mM Tris pH 7.5, 1 mM EDTA, 0.01% NP-40), room temperature, 15 min, protein in a lysate after overexpression, protein details: C-terminal NLuc, label: 3' Alexa Fluor 594, synthetic backbone
Ku70-NLuc = Ku70-NLuc (UniProt P12956); settings: PS, BRET: 1X binding buffer (0.1 M potassium acetate, 20 mM Tris pH 7.5, 1 mM EDTA, 0.01% NP-40), room temperature, 15 min, protein in a lysate after overexpression, protein details: C-terminal NLuc, label: 3' Alexa Fluor 594, synthetic backbone
LRPPRC-NLuc = LRPPRC-NLuc (UniProt P42704); settings: PS, BRET: 1X binding buffer (0.1 M potassium acetate, 20 mM Tris pH 7.5, 1 mM EDTA, 0.01% NP-40), room temperature, 15 min, protein in a lysate after overexpression, protein details: C-terminal NLuc, label: 3' Alexa Fluor 594, synthetic backbone
La NLuc fusion = La NLuc fusion (UniProt P05455); settings: PS, BRET: 1X binding buffer (0.1 M potassium acetate, 20 mM Tris pH 7.5, 1 mM EDTA, 0.01% NP-40), room temperature, 15 min, protein in a lysate after overexpression, protein details: NLuc (N or C), label: 3' Alexa Fluor 594, synthetic backbone
[1] = target: NCL (RBD 1-4) NLuc fusion (UniProt P09405); settings: PS, BRET: 1X binding buffer (0.1 M potassium acetate, 20 mM Tris pH 7.5, 1 mM EDTA, 0.01% NP-40), room temperature, 15 min, protein in a lysate after overexpression, protein details: NLuc (N or C), label: 3' Alexa Fluor 594, synthetic backbone
NLuc-PC4 = NLuc-PC4 (UniProt P53999); settings: PS, BRET: 1X binding buffer (0.1 M potassium acetate, 20 mM Tris pH 7.5, 1 mM EDTA, 0.01% NP-40), room temperature, 15 min, protein in a lysate after overexpression, protein details: N-terminal NLuc, label: 3' Alexa Fluor 594, synthetic backbone
NLuc-RPL11 = NLuc-RPL11 (UniProt P62913); settings: PS, BRET: 1X binding buffer (0.1 M potassium acetate, 20 mM Tris pH 7.5, 1 mM EDTA, 0.01% NP-40), room temperature, 15 min, protein in a lysate after overexpression, protein details: N-terminal NLuc, label: 3' Alexa Fluor 594, synthetic backbone
NLuc-RPL5 = NLuc-RPL5 (UniProt P47962); settings: PS, BRET: 1X binding buffer (0.1 M potassium acetate, 20 mM Tris pH 7.5, 1 mM EDTA, 0.01% NP-40), room temperature, 15 min, protein in a lysate after overexpression, protein details: N-terminal NLuc, label: 3' Alexa Fluor 594, synthetic backbone
NLuc-TCP1-beta = target: T2, NLuc-TCP1-beta (UniProt P80314); settings: PS, BRET: 1X binding buffer (0.1 M potassium acetate, 20 mM Tris pH 7.5, 1 mM EDTA, 0.01% NP-40), room temperature, 15 min, protein in a lysate after overexpression, protein details: N-terminal NLuc, label: 3' Alexa Fluor 594, synthetic backbone
T2 sequence (looked up, limits assumed): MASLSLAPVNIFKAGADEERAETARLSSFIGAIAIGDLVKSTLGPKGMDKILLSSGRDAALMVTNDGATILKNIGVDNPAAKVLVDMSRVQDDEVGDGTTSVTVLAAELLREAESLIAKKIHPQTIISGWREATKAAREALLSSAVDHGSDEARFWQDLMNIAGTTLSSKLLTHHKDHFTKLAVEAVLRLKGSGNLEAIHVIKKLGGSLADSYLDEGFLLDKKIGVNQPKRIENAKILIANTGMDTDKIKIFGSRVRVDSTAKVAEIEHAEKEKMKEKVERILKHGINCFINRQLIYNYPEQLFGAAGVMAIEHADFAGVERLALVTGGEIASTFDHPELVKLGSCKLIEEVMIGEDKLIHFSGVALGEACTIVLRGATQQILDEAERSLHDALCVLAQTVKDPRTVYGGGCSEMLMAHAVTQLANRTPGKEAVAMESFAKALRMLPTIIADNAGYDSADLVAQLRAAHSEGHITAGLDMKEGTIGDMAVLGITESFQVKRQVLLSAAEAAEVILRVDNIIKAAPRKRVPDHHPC

NMP1 (NPM1) NLuc fusion = NMP1 (NPM1) NLuc fusion (UniProt P06748); settings: PS, BRET: 1X binding buffer (0.1 M potassium acetate, 20 mM Tris pH 7.5, 1 mM EDTA, 0.01% NP-40), room temperature, 15 min, protein in a lysate after overexpression, protein details: NLuc (N or C), label: 3' Alexa Fluor 594, synthetic backbone
[2] = target: P54nrb NLuc fusion (Homo sapiens) (UniProt Q15233); settings: PS, BRET: 1X binding buffer (0.1 M potassium acetate, 20 mM Tris pH 7.5, 1 mM EDTA, 0.01% NP-40), room temperature, 15 min, protein in a lysate after overexpression, protein details: NLuc (N or C), label: 3' Alexa Fluor 594, synthetic backbone
RNase H1 NLuc fusion = target: T3, RNase H1 NLuc fusion (UniProt O60930); settings: PS, BRET: 1X binding buffer (0.1 M potassium acetate, 20 mM Tris pH 7.5, 1 mM EDTA, 0.01% NP-40), room temperature, 15 min, protein in a lysate after overexpression, protein details: NLuc (N or C), label: 3' Alexa Fluor 594, synthetic backbone
T3 sequence (looked up, limits assumed): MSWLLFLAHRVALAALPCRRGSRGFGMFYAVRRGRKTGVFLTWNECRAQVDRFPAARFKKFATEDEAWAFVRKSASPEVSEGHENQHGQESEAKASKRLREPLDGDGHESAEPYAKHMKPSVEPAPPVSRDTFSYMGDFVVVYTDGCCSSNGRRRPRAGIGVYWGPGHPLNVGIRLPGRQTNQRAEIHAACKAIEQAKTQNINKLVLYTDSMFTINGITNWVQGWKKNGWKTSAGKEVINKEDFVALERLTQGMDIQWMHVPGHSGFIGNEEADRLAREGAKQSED

SFPQ-NLuc = SFPQ-NLuc (UniProt P23246); settings: PS, BRET: 1X binding buffer (0.1 M potassium acetate, 20 mM Tris pH 7.5, 1 mM EDTA, 0.01% NP-40), room temperature, 15 min, protein in a lysate after overexpression, protein details: C-terminal NLuc, label: 3' Alexa Fluor 594, synthetic backbone
Staufen1 NLuc fusion = target: T4, Staufen1 NLuc fusion (UniProt O95793); settings: PS; 5-10-5 (S)-cEt gap-mer; BRET: 1X binding buffer (0.1 M potassium acetate, 20 mM Tris pH 7.5, 1 mM EDTA, 0.01% NP-40), room temperature, 15 min; protein in a lysate after overexpression; label: 3' Alexa Fluor 594; synthetic backbone
T4 sequence (looked up, limits assumed): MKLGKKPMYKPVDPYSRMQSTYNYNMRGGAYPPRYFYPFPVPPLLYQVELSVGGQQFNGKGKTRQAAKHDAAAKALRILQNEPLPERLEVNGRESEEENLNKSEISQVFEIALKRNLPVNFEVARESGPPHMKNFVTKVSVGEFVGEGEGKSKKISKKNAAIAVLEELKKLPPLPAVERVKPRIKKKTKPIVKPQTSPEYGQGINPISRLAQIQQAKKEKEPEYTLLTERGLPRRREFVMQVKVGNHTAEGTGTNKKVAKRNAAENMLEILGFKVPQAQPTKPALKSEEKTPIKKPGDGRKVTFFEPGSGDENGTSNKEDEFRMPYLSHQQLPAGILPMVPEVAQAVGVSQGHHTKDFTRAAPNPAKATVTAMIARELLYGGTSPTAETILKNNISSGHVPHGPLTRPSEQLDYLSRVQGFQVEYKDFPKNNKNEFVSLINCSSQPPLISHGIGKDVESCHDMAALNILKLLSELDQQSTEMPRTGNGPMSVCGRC

Sequence: CTGCTAGCCTCTGGATTTGA [766634 MOE gap-mer]
- Kd (ANXA2-NLuc; 5-10-5 2'-MOE gap-mer): > 1000 nM
- Kd (FUS-NLuc; 5-10-5 2'-MOE gap-mer): 1.8 nM
- Kd (HSP90 (mid)-NLuc; 5-10-5 2'-MOE gap-mer): 167 nM
- Kd (Ku70-NLuc; 5-10-5 2'-MOE gap-mer): 15 nM
- Kd (LRPPRC-NLuc; 5-10-5 2'-MOE gap-mer): 0.77 nM
- Kd (La NLuc fusion; 5-10-5 2'-MOE gap-mer): 9.3 nM
- Kd ([1]; 5-10-5 2'-MOE gap-mer): 0.009 nM
- Kd (NLuc-PC4; 5-10-5 2'-MOE gap-mer): 6.1 nM
- Kd (NLuc-RPL11; 5-10-5 2'-MOE gap-mer): 15.7 nM
- Kd (NLuc-RPL5; 5-10-5 2'-MOE gap-mer): 3.7 nM
- Kd (NLuc-TCP1-beta; 5-10-5 2'-MOE gap-mer): 398 nM
- Kd (NMP1 (NPM1) NLuc fusion; 5-10-5 2'-MOE gap-mer): > 1000 nM
- Kd ([2]; 5-10-5 2'-MOE gap-mer): 82.9 nM
- Kd (RNase H1 NLuc fusion; 5-10-5 2'-MOE gap-mer): 2 nM
- Kd (SFPQ-NLuc; 5-10-5 2'-MOE gap-mer): 3.7 nM

Sequence: CTGCTAGCCTCTGGATTTGA [766636 cEt gap-mer]
- Kd (ANXA2-NLuc; 5-10-5 (S)-cEt gap-mer): > 1000 nM
- Kd (FUS-NLuc; 5-10-5 (S)-cEt gap-mer): 0.6 nM
- Kd (HSP90 (mid)-NLuc; 5-10-5 (S)-cEt gap-mer): 43 nM
- Kd (Ku70-NLuc; 5-10-5 (S)-cEt gap-mer): 4 nM
- Kd (LRPPRC-NLuc; 5-10-5 (S)-cEt gap-mer): 0.16 nM
- Kd (La NLuc fusion; 5-10-5 (S)-cEt gap-mer): 5 nM
- Kd ([1]; 5-10-5 (S)-cEt gap-mer): 1.7 nM
- Kd (NLuc-PC4; 5-10-5 (S)-cEt gap-mer): 1.1 nM
- Kd (NLuc-RPL11; 5-10-5 (S)-cEt gap-mer): 17.4 nM
- Kd (NLuc-RPL5; 5-10-5 (S)-cEt gap-mer): 1.3 nM
- Kd (NLuc-TCP1-beta; 5-10-5 (S)-cEt gap-mer): 113 nM
- Kd (NMP1 (NPM1) NLuc fusion; 5-10-5 (S)-cEt gap-mer): > 1000 nM
- Kd ([2]; 5-10-5 (S)-cEt gap-mer): 9.3 nM
- Kd (RNase H1 NLuc fusion; 5-10-5 (S)-cEt gap-mer): 5 nM
- Kd (SFPQ-NLuc; 5-10-5 (S)-cEt gap-mer): 2.7 nM
- Kd (Staufen1 NLuc fusion): 100 nM
